These are yes or no findings as the source states them, for the method shown. Binding can be weak; no strength is given.
Target: GST-C9ORF72 (UniProt Q96LT7)
Assay: pull-down; recombinant p62 pre-cleared with GST and glutathione-agarose, then incubated with glutathione-agarose beads and 0.25 ug GST or GST-C9ORF72, 1 h, 4 C, buffer A (20 mM HEPES pH 7.9, 150 mM NaCl, 0.5 mM EDTA, 1 mM DTT, 10% glycerol, 0.1% triton-X-100); both purified

By UniProt entry, the sequences of proteins in these tests, tags left out. Where a name states a change or a piece, a line headed by the entry shows the natural chain unless it says otherwise.
UniProt Q96LT7: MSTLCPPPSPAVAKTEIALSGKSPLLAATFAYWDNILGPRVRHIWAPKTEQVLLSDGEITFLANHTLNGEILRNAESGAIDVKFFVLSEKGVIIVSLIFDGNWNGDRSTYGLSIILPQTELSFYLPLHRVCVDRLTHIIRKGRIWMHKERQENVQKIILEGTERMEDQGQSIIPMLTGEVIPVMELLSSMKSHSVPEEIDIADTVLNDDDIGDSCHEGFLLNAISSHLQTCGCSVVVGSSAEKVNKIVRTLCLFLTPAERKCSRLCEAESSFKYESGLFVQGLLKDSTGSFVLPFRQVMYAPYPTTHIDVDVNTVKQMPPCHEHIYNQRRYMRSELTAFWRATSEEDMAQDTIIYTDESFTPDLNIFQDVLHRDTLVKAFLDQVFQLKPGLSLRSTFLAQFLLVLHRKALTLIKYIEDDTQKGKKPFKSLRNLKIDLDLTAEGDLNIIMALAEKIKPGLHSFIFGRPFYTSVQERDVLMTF

“recombinant p62 (from UniProt Q13501 1-440)” was tested, and the binding was “binds”.

From PMC6052026
